For the assay, the target named is Dcr-2 R1330A (Drosophila melanogaster) (UniProt A1ZAW0). Description: SEC; overlay of size exclusion chromatography of Dcr-2^WT, Dcr-2^R1330A and Dcr-2^R1308A/R1309A/R1330A, each with Loqs-PD and dsRNA; both purified.

Amino acid sequences for entries named in this document (tags omitted). A change or cut given only in a name is not applied to a line headed by its entry.
UniProt A1ZAW0: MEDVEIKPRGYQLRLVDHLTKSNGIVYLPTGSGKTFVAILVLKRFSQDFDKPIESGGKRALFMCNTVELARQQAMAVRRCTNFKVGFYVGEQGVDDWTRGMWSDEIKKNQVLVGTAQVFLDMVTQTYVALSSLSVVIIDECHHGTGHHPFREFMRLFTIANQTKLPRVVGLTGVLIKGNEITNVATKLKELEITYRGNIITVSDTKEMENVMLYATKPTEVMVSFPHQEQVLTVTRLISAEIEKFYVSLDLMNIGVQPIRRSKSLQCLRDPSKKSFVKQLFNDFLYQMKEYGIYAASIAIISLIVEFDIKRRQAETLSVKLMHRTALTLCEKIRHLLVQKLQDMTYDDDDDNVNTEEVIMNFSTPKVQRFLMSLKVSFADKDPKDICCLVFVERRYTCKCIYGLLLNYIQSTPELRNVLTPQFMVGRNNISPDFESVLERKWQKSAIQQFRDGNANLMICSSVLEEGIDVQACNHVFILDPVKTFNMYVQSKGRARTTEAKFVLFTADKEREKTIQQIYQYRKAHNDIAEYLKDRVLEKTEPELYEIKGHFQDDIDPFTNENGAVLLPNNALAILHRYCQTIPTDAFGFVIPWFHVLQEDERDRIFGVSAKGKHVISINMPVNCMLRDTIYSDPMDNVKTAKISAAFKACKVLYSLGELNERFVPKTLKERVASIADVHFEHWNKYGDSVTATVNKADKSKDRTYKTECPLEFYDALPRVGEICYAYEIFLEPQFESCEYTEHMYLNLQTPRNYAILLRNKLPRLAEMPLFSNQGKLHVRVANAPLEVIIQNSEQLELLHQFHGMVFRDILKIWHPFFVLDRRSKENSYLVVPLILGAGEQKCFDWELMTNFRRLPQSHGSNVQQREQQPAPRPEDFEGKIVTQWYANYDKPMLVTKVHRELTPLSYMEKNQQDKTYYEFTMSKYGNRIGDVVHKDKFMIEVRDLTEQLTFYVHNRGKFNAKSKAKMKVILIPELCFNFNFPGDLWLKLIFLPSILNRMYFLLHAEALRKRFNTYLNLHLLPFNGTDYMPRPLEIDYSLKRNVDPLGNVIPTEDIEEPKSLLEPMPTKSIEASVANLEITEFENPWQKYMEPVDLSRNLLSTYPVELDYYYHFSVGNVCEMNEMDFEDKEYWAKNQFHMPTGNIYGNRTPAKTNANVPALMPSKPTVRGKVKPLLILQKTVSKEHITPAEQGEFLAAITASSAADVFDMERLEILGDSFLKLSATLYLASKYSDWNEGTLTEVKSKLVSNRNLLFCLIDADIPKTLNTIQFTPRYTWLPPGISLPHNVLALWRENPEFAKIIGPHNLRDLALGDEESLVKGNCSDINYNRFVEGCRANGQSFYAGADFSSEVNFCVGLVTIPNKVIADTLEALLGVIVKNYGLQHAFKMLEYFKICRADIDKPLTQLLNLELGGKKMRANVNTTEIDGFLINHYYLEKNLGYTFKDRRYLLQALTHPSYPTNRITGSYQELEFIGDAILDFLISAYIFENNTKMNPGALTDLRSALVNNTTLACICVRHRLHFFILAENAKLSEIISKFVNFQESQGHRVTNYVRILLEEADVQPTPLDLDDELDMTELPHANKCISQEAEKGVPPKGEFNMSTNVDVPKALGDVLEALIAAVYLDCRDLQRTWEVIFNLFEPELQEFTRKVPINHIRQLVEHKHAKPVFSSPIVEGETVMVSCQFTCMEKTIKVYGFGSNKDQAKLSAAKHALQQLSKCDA

This passage reports binding results from article PMC9279154 (Nature, 2022).

These are yes or no findings as the source states them, for the method shown.

In the case of “Dcr-2 R1330A (from UniProt A1ZAW0 1-1722) (enzyme)”, the binding entry is listed as “no binding”.
